According to PMC7878837, “Generation of Human-Induced Pluripotent Stem Cell-Derived Functional Enterocyte-Like Cells for Pharmacokinetic Studies” (Stem Cell Reports, 2021):
Like-named read-outs stand apart in the source and are kept apart here.

Experiment: Permeability test (Papp) across hiPSC-derived enterocyte-like cell monolayer
Format: in vitro ADME
Conditions: human, M3-2 medium, 37°C 2 h, n = 4
Procedure: The unlabeled compounds were analyzed by LC-MS/MS. […]
Permeability measurements
5 was determined as follows: the culture medium for hiPS-derived enterocyte-like cells was replaced with […]
started by replacing the FBS-containing HBSS buffer with substrate +/- inhibitor and incubated at 37°C for 2 h. The unlabeled compounds were analyzed by LC-MS/MS. The LC-MS/MS system consisted of a Waters ACQUITY UPLC (Waters Corporation, Milford, MA, USA) and a Waters Quattro Ultima mass spectrometer (Waters Corporation). The multiple reaction monitoring modes were used to monitor ions.
The detailed conditions for the analyses of the compounds are shown in Supplemental Table S1. The apparent membrane permeability coefficient (Papp) was calculated as follows. Papp ൌ ௗொௗ௧ ൈ ଵ஺஼బ Where dQ/dt is the amount of the compound permeated per unit of time, A is the surface area of insert membrane (0.33 cm2), and C0 is the initial compound concentration in the donor chamber. Differentiated cells showing TEER >30 Ω・cm2 were used. […]
100ൈቀ1െexp൫െα ൈP௔௣௣ ൯ቁ. Where α is the scaling factor. The fitting curve was calculated by nonlinear regression using Phoenix WinNonlin (Ver. 8.1, Certara, L.P.).

Papp at 2 h (D30 of differentiation, read-out: RPChiPS771 d30 Papp Mean ± SD): 5.57 ± 3.54 ×10⁻⁶ cm/s
Papp at 2 h (day 23 of differentiation, read-out: RPChiPS771 d23 Papp Mean ± SD): 2.9 ± 0.48 ×10⁻⁶ cm/s
Compound: CC(C)NCC(O)COc1ccc(CC(N)=O)cc1 (centres unmarked) [atenolol]
